No constants are given. Whether binding was seen depends on the method and setting. Some entries that bind do so weakly or less than the wild type.
Target: biotinylated hHGF (human) (UniProt P14210)
Assay: SPR; Biacore T200; biotinylated macrocycle (200-500 RU) or biotinylated hHGF (~2,200 RU) immobilised on a CAP sensor chip (Biotin CAPture Kit); human, murine or canine Met ectodomain tested; single-cycle kinetics; HBS EP+ with 0.1% DMSO; 1:1 binding model; both purified

Amino acid sequences for entries named in this document (tags omitted). Residues count along the entry.
UniProt P14210, residues 32-728: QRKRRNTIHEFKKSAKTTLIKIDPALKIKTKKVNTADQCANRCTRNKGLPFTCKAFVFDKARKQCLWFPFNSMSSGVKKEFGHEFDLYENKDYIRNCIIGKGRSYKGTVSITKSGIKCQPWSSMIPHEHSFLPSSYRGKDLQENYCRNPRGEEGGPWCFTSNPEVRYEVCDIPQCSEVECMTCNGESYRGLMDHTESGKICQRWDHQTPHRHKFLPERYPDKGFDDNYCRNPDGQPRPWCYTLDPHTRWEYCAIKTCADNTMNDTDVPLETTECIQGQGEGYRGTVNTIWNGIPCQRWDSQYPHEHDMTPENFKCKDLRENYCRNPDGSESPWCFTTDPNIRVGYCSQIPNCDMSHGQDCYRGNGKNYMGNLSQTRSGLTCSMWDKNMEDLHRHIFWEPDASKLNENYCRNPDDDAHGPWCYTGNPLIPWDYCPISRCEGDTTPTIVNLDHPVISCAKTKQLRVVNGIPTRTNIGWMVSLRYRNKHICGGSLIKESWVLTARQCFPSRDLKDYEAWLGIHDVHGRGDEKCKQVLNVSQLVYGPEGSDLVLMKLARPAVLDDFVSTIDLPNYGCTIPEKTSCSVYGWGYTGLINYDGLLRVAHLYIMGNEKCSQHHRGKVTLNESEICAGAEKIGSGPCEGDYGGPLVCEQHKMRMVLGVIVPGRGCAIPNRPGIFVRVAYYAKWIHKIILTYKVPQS
UniProt Q75ZY9, residues 25-935: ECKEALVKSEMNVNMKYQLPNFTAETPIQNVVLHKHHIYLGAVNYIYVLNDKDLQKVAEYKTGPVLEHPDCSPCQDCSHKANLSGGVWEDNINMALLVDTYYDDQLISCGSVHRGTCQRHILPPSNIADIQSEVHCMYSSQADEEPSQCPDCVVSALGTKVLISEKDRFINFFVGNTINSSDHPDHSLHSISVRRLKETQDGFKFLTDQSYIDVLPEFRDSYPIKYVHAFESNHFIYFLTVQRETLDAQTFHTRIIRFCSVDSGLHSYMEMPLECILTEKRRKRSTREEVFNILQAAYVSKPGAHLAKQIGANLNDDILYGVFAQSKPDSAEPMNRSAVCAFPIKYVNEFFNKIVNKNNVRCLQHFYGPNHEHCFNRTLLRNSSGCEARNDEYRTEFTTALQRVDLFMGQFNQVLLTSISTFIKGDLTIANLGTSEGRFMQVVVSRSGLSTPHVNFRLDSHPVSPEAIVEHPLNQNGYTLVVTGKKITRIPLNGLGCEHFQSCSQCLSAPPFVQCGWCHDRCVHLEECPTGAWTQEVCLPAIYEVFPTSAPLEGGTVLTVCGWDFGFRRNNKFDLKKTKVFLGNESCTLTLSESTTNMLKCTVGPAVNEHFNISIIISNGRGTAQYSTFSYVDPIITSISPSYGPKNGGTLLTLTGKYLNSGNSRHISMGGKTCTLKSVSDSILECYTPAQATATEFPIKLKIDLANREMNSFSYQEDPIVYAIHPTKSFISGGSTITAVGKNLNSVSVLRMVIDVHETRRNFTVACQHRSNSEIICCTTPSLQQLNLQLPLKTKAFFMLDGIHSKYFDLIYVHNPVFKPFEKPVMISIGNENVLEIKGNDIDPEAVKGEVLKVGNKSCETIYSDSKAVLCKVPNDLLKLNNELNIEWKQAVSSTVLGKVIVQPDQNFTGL

| Substance | binding |
| --- | --- |
| Recombinant human Met ectodomain-Fc chimera protein (from UniProt P08581 25-932) (Fc fusion) | binds |
| canine Met ectodomain (from UniProt Q75ZY9 25-935) (domain or fragment) | binds |
| murine Met ectodomain-Fc chimera protein (from UniProt P16056 25-931) (Fc fusion) | binds |
